± gives the standard deviation of the averaged measurements. Only a part is listed here, and it is no random draw. Most values lie at the level of the controls, where differences are scatter.
Compound: Nc1ncnc2c1ncn2[C@@H]1O[C@H](COP(=O)(O)OP(=O)(O)OP(=O)(O)O)[C@@H](O)[C@H]1O [adenosine triphosphate]
Assay: NP40-soluble protein abundance relative to vehicle (solubility fold change) (ratio); higher = more soluble protein in presence of ATP
In short: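 Across three independent experiments, values are fold changes against the detergent-processed vehicle for each replicate, based on vsn-normalised intensities. The samples were Jurkat crude lysate treated with eight concentrations (0.1 to 10 mM) for 10 min at room temperature and then 3 min at 37 °C. Lysate was solubilised with 0.8% NP40 and benzonase, ultracentrifuged, and the supernatant analysed by TMT-labelled LC-MS/MS.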

Protein sequences, listed by entry. Tags and fused reporters are not part of them. Lines headed by an entry give the natural chain unless they say otherwise; changes in a name come on top.
UniProt Q16566: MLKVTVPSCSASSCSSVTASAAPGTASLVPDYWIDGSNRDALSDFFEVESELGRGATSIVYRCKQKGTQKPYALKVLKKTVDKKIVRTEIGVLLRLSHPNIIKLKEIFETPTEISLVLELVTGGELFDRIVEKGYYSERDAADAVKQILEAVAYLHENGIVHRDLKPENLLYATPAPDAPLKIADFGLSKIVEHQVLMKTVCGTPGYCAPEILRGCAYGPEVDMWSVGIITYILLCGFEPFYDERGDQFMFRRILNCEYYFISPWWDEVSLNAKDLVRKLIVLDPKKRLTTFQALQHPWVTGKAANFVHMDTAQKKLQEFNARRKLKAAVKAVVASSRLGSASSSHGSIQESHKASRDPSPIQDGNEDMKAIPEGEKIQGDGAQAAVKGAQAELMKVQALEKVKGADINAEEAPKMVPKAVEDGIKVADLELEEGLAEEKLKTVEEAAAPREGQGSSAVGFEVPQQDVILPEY
UniProt Q15649: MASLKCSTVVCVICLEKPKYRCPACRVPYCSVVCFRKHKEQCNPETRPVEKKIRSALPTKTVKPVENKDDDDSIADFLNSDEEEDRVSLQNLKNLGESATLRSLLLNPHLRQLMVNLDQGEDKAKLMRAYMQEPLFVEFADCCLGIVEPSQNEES
UniProt Q15506: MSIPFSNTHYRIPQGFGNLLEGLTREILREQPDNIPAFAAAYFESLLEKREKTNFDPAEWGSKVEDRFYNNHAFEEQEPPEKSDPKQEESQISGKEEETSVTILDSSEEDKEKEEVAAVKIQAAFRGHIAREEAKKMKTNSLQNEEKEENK
UniProt Q8IWW6: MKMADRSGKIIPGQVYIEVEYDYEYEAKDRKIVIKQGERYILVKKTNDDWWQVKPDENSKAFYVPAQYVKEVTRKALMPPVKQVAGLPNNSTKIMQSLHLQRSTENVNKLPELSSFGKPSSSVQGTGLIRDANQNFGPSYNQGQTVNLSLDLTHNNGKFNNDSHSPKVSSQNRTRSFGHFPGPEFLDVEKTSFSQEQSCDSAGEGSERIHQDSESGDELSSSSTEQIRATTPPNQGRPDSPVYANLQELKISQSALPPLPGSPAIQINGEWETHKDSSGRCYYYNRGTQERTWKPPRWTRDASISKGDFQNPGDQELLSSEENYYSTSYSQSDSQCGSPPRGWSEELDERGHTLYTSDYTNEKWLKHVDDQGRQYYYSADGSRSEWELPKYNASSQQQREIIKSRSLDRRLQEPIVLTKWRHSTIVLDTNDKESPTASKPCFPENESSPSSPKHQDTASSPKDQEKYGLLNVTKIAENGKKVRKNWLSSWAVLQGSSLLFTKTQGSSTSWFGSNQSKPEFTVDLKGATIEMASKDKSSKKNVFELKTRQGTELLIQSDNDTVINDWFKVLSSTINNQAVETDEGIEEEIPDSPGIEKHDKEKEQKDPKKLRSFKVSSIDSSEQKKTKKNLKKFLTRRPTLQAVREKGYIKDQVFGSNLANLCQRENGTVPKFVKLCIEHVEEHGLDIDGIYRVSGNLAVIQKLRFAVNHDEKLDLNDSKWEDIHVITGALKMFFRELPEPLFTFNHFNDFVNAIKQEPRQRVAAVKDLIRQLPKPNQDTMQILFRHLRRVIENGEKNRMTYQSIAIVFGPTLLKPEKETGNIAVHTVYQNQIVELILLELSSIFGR
UniProt Q14152, whole entry: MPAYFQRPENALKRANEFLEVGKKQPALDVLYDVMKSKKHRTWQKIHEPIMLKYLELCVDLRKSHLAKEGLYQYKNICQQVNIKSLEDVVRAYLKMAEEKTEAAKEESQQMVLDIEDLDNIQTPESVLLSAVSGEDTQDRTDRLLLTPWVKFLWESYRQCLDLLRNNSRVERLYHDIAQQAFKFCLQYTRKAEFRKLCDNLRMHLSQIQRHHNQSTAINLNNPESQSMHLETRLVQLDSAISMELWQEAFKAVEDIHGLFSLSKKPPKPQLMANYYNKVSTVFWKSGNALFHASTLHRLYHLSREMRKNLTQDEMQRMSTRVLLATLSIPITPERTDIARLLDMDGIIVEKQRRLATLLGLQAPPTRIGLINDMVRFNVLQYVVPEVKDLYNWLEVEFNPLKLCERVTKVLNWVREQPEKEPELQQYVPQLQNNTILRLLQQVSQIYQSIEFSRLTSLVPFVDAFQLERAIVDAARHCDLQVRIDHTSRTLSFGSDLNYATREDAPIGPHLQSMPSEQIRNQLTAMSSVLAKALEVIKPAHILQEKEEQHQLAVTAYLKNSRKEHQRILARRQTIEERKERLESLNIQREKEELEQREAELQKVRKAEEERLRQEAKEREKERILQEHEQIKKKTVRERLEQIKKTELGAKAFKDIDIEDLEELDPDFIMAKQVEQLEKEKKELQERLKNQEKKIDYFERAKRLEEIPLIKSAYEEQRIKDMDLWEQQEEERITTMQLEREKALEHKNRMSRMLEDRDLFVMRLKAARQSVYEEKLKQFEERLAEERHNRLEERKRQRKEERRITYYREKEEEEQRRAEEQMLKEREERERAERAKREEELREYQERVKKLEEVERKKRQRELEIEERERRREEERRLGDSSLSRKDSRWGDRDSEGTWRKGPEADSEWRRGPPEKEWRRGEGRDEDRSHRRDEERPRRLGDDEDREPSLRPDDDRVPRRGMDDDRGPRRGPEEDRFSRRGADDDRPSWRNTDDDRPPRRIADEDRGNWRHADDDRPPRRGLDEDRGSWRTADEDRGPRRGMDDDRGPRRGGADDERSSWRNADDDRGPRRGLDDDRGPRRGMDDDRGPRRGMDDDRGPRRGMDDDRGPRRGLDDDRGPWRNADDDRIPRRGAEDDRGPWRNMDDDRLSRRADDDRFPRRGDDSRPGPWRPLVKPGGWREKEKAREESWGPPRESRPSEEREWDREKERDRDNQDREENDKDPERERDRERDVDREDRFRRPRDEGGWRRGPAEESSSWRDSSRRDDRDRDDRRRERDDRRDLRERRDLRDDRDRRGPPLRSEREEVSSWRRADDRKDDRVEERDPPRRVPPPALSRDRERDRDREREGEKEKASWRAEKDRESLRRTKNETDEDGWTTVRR
UniProt Q3KRA6: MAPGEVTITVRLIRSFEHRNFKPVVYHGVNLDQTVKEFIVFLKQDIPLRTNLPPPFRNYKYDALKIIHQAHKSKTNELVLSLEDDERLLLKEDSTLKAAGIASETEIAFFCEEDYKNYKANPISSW
UniProt Q14320: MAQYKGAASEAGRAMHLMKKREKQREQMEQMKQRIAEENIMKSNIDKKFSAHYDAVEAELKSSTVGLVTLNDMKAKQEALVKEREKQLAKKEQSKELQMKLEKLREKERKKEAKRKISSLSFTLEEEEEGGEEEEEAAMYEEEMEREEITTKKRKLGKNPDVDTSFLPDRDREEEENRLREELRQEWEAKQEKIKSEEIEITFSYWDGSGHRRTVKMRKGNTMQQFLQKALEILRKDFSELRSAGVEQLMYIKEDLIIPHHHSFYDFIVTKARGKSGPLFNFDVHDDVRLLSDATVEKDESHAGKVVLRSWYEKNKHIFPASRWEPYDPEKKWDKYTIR
UniProt Q14376: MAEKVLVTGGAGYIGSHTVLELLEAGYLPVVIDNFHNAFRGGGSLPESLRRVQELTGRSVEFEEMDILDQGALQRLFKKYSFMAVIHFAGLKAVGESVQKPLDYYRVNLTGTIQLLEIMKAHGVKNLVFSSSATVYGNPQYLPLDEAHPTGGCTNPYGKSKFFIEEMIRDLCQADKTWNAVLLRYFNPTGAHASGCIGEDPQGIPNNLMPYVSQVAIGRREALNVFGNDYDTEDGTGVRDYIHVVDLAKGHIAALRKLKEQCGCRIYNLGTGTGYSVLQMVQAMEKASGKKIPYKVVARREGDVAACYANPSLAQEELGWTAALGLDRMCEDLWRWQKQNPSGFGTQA
UniProt Q15363: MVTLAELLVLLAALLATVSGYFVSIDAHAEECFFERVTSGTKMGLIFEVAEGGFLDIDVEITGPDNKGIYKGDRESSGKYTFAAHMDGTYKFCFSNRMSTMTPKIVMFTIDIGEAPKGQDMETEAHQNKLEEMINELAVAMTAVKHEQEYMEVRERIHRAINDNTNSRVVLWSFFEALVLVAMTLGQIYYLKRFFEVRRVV
UniProt Q15652: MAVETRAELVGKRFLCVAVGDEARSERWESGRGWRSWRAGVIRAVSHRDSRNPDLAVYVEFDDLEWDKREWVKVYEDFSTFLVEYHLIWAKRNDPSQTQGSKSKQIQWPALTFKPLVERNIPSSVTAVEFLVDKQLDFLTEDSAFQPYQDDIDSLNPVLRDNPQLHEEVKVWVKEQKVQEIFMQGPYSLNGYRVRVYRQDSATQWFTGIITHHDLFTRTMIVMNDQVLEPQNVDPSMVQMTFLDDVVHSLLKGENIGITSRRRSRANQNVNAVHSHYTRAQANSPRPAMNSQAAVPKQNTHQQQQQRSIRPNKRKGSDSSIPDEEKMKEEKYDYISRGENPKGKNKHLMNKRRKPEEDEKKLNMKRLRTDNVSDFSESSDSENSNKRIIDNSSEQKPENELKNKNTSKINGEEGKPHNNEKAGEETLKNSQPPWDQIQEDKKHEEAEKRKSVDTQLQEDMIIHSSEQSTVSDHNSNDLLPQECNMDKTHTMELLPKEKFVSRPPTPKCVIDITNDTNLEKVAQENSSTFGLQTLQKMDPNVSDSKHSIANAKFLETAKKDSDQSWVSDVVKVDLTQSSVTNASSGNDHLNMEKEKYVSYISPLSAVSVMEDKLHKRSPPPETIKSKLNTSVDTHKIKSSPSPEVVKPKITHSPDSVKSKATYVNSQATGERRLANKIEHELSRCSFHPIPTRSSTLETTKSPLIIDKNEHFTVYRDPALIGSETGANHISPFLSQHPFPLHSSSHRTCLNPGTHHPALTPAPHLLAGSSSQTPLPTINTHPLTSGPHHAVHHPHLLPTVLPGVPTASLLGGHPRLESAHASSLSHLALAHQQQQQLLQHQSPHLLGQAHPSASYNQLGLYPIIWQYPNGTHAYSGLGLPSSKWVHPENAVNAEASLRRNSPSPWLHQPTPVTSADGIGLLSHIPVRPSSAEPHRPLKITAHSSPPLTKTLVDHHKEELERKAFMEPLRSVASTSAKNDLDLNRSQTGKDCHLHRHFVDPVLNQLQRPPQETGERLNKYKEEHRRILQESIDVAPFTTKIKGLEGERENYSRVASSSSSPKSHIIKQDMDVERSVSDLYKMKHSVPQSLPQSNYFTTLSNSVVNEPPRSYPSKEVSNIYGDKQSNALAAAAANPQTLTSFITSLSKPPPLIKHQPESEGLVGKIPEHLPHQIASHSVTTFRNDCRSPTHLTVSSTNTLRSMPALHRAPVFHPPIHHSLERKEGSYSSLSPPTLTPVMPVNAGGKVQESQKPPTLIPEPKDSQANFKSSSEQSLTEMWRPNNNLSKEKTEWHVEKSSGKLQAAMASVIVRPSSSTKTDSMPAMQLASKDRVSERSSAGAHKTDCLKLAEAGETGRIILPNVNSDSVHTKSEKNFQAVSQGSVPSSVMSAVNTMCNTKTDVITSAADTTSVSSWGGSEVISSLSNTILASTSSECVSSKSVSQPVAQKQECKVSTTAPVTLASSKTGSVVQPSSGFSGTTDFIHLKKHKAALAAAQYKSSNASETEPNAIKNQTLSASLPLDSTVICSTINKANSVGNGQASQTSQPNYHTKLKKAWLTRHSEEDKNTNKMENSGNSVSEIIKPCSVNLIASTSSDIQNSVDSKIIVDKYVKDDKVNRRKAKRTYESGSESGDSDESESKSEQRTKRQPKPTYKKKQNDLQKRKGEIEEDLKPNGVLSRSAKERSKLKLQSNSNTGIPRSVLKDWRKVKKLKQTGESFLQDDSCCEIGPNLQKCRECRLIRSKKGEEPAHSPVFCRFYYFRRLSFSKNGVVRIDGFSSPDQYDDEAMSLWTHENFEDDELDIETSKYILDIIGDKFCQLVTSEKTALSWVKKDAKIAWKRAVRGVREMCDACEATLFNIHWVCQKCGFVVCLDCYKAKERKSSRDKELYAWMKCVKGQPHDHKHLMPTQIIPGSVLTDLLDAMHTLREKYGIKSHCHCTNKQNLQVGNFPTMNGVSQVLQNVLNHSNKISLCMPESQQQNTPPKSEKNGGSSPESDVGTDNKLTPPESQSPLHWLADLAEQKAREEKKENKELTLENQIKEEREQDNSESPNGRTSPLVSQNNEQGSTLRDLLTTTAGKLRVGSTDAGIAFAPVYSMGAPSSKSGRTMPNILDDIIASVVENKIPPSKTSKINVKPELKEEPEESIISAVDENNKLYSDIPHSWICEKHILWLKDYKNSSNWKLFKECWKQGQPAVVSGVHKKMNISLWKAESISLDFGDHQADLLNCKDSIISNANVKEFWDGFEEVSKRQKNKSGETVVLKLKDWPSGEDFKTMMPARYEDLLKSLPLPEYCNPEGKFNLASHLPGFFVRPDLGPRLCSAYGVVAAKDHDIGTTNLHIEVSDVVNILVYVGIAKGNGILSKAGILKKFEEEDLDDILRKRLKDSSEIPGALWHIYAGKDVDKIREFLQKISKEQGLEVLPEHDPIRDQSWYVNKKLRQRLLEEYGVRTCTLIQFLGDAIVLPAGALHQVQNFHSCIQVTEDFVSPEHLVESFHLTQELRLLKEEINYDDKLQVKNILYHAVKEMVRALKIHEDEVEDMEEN

Target	NP40-soluble protein abundance (concentration: 0.1mM)	NP40-soluble protein abundance (concentration: 0.5mM)
UniProt Q15223	0.935 ± 0.032	0.953 ± 0.057
UniProt Q15560 and related entries	1.08 ± 0.1	0.971 ± 0.055
CAMK4 (UniProt Q16566)	0.99 ± 0.029	1.02 ± 0.039
PPA1 (UniProt Q15181)	1.01 ± 0.065	1.04 ± 0.068
ESPL1 (UniProt Q14674)	0.932 ± 0.24	0.99 ± 0.096
Q495G5 and related entries (UniProt Q8IVH4)	1 ± 0.015	0.995 ± 0.038
CD226 (UniProt Q15762)	0.982 ± 0.082	0.81 ± 0.062
SF3A2 (UniProt Q15428)	1 ± 0.018	1.06 ± 0.045
AP5B1 (UniProt Q2VPB7)	0.903 ± 0.025	0.904 ± 0.072
ACAP2 (UniProt Q15057)	1.05 ± 0.064	1.01 ± 0.042
UniProt Q4ADV7 and related entries	0.989 ± 0.12	0.97 ± 0.088
PDS5A (UniProt Q29RF7)	0.978 ± 0.043	0.988 ± 0.033
NPAT (UniProt Q14207)	1.01 ± 0.076	0.976 ± 0.038
ZNHIT3 (UniProt Q15649)	0.962 ± 0.13	0.907 ± 0.12
UniProt Q15544 and related entries	0.999 ± 0.027	0.937 ± 0.067
SPA17 (UniProt Q15506)	0.925 ± 0.19	0.875 ± 0.026
UniProt Q14978-2	0.96 ± 0.042	0.781 ± 0.035
UniProt Q14240-2|Q14240	1.01 ± 0.078	1.18 ± 0.057
SF3A1 (UniProt Q15459)	1 ± 0.03	1.09 ± 0.057
MORC3 (UniProt Q14149)	1.04 ± 0.05	1.06 ± 0.03

Another view of part of the listing above.
AP5B1 (UniProt Q2VPB7)
  NP40-soluble protein abundance (concentration: 0.1mM): 0.903 ± 0.025; NP40-soluble protein abundance (concentration: 0.5mM): 0.904 ± 0.072
ACAP2 (UniProt Q15057)
  NP40-soluble protein abundance (concentration: 0.1mM): 1.05 ± 0.064; NP40-soluble protein abundance (concentration: 0.5mM): 1.01 ± 0.042
UniProt Q4ADV7 and related entries
  NP40-soluble protein abundance (concentration: 0.1mM): 0.989 ± 0.12; NP40-soluble protein abundance (concentration: 0.5mM): 0.97 ± 0.088
PDS5A (UniProt Q29RF7)
  NP40-soluble protein abundance (concentration: 0.1mM): 0.978 ± 0.043; NP40-soluble protein abundance (concentration: 0.5mM): 0.988 ± 0.033

Carrying on.

Target	NP40-soluble protein abundance (concentration: 0.1mM)	NP40-soluble protein abundance (concentration: 0.5mM)
ETFDH (UniProt Q16134)	1.07 ± 0.058	1.03 ± 0.052
UniProt Q15286 and related entries	1.05 ± 0.068	1.05 ± 0.04
UniProt Q14671 and related entries	0.961 ± 0.048	0.947 ± 0.028
Q1RLN5 and related entries (UniProt Q8IWW6)	1.08 ± 0.066	1.16 ± 0.045
ZNF146 (UniProt Q15072)	1.05 ± 0.08	1.08 ± 0.1
UniProt Q15750 and related entries	0.9946 ± 0.0011	1.03 ± 0.065
UniProt Q14687 and related entries	0.958 ± 0.027	0.972 ± 0.054
UniProt Q15020 and related entries	1.01 ± 0.033	1.04 ± 0.072
TAF9 (UniProt Q16594)	0.901 ± 0.042	0.865 ± 0.13
EIF3A (UniProt Q14152)	0.966 ± 0.075	0.959 ± 0.087
QRICH1 (UniProt Q2TAL8)	1.015 ± 0.0094	1.03 ± 0.024
UniProt Q14696	0.955 ± 0.042	1 ± 0.065
UniProt Q16514-2	0.953 ± 0.12	0.994 ± 0.11
LBR (UniProt Q14739)	0.998 ± 0.06	0.948 ± 0.036
TTF1 (UniProt Q15361)	0.938 ± 0.086	0.87 ± 0.14
UniProt Q16659	0.995 ± 0.045	0.944 ± 0.11
KIF14 (UniProt Q15058)	0.924 ± 0.12	0.985 ± 0.12
UniProt Q15723 and related entries	0.942 ± 0.088	0.943 ± 0.08
C2orf76 (UniProt Q3KRA6)	0.92 ± 0.11	0.977 ± 0.069
FAM50A (UniProt Q14320)	0.971 ± 0.049	0.962 ± 0.035

Target	NP40-soluble protein abundance (concentration: 0.1mM)	NP40-soluble protein abundance (concentration: 0.5mM)
MED1 (UniProt Q15648)	0.991 ± 0.047	1.01 ± 0.06
UBXN2B (UniProt Q14CS0)	0.997 ± 0.019	0.856 ± 0.079
GALE (UniProt Q14376)	1.04 ± 0.05	0.988 ± 0.019
UniProt Q15811 and related entries	0.999 ± 0.029	0.983 ± 0.049
UniProt Q16864 and related entries	0.985 ± 0.052	0.998 ± 0.041
UniProt Q15669	0.983 ± 0.026	0.997 ± 0.022
UniProt Q14865	0.997 ± 0.072	1.02 ± 0.066
TAF7 (UniProt Q15545)	0.985 ± 0.049	0.956 ± 0.018
UniProt Q15118 and related entries	1.18 ± 0.05	1.32 ± 0.14
TMED2 (UniProt Q15363)	1.1 ± 0.16	1.11 ± 0.14
UniProt Q16698 and related entries	0.993 ± 0.0084	0.99 ± 0.03
UniProt Q14669-2|Q14669-3	1.05 ± 0.019	1.15 ± 0.037
UniProt Q14247 and related entries	0.999 ± 0.019	1.05 ± 0.064
MAPKAPK3 (UniProt Q16644)	0.994 ± 0.034	0.999 ± 0.057
UniProt Q15652 and related entries	1.009 ± 0.01	1.03 ± 0.05
FZD2 (UniProt Q14332)	0.971 ± 0.035	1.05 ± 0.015
SF3B4 (UniProt Q15427)	1.03 ± 0.096	1.09 ± 0.091
UniProt Q14161-5|Q14161	0.988 ± 0.019	0.961 ± 0.012
GAMT (UniProt Q14353)	1.08 ± 0.02	1.05 ± 0.03
RASA3 (UniProt Q14644)	1.02 ± 0.032	1.01 ± 0.07

— the supplement of paper PMC6411743
